For one substance, binding results are on record in publication PMC5823873.

Amino acid sequences for entries named in this document (tags omitted). A change or cut given only in a name is not applied to a line headed by its entry. Chains listed by the source or under a name are the forms on record and can include a tag or linker.
TRPC4β (Q9QUQ5, form named): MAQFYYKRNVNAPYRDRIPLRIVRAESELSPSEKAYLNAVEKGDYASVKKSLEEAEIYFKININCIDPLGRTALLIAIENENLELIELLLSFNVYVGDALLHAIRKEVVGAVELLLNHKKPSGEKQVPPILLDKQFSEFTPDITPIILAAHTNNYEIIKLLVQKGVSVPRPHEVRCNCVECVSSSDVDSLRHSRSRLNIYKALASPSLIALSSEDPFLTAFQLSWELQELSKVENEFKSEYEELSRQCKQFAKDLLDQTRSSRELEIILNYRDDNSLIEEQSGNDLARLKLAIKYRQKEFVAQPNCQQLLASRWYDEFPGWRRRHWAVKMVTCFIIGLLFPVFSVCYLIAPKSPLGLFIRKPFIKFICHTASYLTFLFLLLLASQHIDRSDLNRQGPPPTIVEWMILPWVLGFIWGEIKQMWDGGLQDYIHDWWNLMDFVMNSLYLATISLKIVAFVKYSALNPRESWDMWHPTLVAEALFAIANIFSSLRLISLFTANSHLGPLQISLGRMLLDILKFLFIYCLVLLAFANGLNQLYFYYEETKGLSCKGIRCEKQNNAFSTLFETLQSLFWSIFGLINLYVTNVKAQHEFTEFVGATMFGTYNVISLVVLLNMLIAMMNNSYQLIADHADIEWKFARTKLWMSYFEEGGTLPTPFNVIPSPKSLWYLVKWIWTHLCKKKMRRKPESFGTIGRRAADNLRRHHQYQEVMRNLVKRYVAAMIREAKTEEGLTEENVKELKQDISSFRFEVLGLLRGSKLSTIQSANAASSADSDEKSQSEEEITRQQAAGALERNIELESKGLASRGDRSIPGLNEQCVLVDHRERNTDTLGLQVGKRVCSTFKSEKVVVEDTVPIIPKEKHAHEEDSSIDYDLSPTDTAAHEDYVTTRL
UniProt P08754: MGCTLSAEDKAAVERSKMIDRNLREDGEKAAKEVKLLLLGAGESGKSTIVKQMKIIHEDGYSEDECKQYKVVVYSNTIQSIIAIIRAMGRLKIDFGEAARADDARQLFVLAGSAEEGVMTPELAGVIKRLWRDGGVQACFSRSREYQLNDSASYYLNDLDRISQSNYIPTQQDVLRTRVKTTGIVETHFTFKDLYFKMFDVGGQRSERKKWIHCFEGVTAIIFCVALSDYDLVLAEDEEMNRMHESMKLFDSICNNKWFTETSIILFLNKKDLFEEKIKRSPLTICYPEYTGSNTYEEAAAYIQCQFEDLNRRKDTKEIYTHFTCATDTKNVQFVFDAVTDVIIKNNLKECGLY

The target in this experiment is TRPC4β (UniProt Q9QUQ5). Kind of experiment: co-IP; TRPC4β and Gαi3 in HEK293 cells, with or without co-expressed PC1(FL); which protein was precipitated is not told.

No constants are given. Whether binding was seen depends on the method and setting. In cells and extracts the contact can be indirect. Some results given as binding are weak or reduced against the parent protein; the word gives no strength.

On to Gαi3 (from UniProt P08754 1-354), for which the binding result was “binds”.
